From PMC5833831
These are yes or no findings as the source states them, for the method shown. Binding seen in cells or lysates may run through a third protein. Some entries that bind do so weakly or less than the wild type. For part of these data: Tags and fused reporters may be left off the sequences shown.

Protein sequences, listed by entry. Tags and fused reporters are not part of them. Lines headed by an entry give the natural chain unless they say otherwise; changes in a name come on top.
UniProt O95863: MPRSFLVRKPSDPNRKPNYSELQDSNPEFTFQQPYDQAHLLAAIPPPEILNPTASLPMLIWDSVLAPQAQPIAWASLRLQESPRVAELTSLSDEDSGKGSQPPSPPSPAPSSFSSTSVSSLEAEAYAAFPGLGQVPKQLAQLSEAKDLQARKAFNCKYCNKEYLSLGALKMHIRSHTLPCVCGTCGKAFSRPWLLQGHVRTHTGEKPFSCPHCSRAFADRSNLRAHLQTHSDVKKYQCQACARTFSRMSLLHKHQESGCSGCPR

B1: endogenous PPIL2 (enzyme, UniProt Q13356 1-520)
chain: MGKRQHQKDKMYITCAEYTHFYGGKKPDLPQTNFRRLPFDHCSLSLQPFVYPVCTPDGIVFDLLNIVPWLKKYGTNPSNGEKLDGRSLIKLNFSKNSEGKYHCPVLFTVFTNNTHIVAVRTTGNVYAYEAVEQLNIKAKNFRDLLTDEPFSRQDIITLQDPTNLDKFNVSNFYHVKNNMKIIDPDEEKAKQDPSYYLKNTNAETRETLQELYKEFKGDEILAATMKAPEKKKVDKLNAAHYSTGKVSASFTSTAMVPETTHEAAAIDEDVLRYQFVKKKGYVRLHTNKGDLNLELHCDLTPKTCENFIRLCKKHYYDGTIFHRSIRNFVIQGGDPTGTGTGGESYWGKPFKDEFRPNLSHTGRGILSMANSGPNSNRSQFFITFRSCAYLDKKHTIFGRVVGGFDVLTAMENVESDPKTDRPKEEIRIDATTVFVDPYEEADAQIAQERKTQLKVAPETKVKSSQPQAGSQGPQTFRQGVGKYINPAATKRAAEEEPSTSATVPMSKKKPSRGFGDFSSW
B2: GFP-PPIL2-Ubox (domain or fragment, UniProt Q13356 35-108)
chain: RRLPFDHCSLSLQPFVYPVCTPDGIVFDLLNIVPWLKKYGTNPSNGEKLDGRSLIKLNFSKNSEGKYHCPVLFT

How the values were obtained:
GST-SNAI1 fusion protein = GST-SNAI1 fusion protein (UniProt O95863); test: pull-down; Pierce GST Protein Interaction Pull-Down Kit; purified GST-SNAI1 immobilised on the spin column; PPIL2 blotted from MCF-7 cell lysate; only the target purified
[1] = target: endogenous SNAI1 (human (endogenous in T47D)) (UniProt O95863); test: co-IP; endogenous PPIL2 and SNAI1 in T47D cells (Fig. 3c, d)
[2] = target: Flag-SNAI1 (pcDNA3.1-3×Flag-SNAI1) (UniProt O95863); test: co-IP; GFP-tagged truncations of PPIL2 or of SNAI1 expressed in T47D cells (Fig. 3e, f)

| Binder | binding (GST-SNAI1 fusion protein) | binding [1] | binding [2] |
| --- | --- | --- | --- |
| B1 | binds | binds | – |
| B2 | – | – | binds |
